Results are given in words; binding and its absence hold for the method and conditions named. In cells and extracts the contact can be indirect. Some results given as binding are weak or reduced against the parent protein; the word gives no strength. Tags and fused reporters may be left off the sequences shown.
Columns and labels:
[1] = molecular target: 3×-FLAG-RNF213 (Homo sapiens (Human)) (UniProt Q63HN8); assay: anti-HA co-immunoprecipitation/immunoblot, BT474 RNF213-KO-PTPN1-KD cells (FIG. 1A); similar in AU565-derived cells (FIG. 7C)
[2] = molecular target: 3×-FLAG-RNF213 (Homo sapiens (Human)) (UniProt Q63HN8); assay: anti-HA co-immunoprecipitation/immunoblot, AU565 RNF213-KO-PTPN1-KD cells (FIG. 7C)
[3] = molecular target: 3×-FLAG-RNF213 (Homo sapiens (Human)) (UniProt Q63HN8); assay: anti-HA co-immunoprecipitation/immunoblot, BT474 RNF213-KO-PTPN1-KD cells (FIG. 1A, 1E)
[4] = molecular target: 3×-FLAG-RNF213 (Homo sapiens (Human)) (UniProt Q63HN8); assay: anti-HA co-immunoprecipitation/immunoblot with dasatinib or DMSO, AU565 RNF213-KO-PTPN1-KD cells (FIG. 8B)
[5] = molecular target: 3×-FLAG-RNF213 (Homo sapiens (Human)) (UniProt Q63HN8); assay: anti-HA co-immunoprecipitation/immunoblot with dasatinib or DMSO (FIG. 1E, FIG. 8B)

Chains of the proteins cited; added tags and fusions are not shown. Lines headed by an entry give the natural chain unless they say otherwise; changes in a name come on top.
UniProt Q63HN8: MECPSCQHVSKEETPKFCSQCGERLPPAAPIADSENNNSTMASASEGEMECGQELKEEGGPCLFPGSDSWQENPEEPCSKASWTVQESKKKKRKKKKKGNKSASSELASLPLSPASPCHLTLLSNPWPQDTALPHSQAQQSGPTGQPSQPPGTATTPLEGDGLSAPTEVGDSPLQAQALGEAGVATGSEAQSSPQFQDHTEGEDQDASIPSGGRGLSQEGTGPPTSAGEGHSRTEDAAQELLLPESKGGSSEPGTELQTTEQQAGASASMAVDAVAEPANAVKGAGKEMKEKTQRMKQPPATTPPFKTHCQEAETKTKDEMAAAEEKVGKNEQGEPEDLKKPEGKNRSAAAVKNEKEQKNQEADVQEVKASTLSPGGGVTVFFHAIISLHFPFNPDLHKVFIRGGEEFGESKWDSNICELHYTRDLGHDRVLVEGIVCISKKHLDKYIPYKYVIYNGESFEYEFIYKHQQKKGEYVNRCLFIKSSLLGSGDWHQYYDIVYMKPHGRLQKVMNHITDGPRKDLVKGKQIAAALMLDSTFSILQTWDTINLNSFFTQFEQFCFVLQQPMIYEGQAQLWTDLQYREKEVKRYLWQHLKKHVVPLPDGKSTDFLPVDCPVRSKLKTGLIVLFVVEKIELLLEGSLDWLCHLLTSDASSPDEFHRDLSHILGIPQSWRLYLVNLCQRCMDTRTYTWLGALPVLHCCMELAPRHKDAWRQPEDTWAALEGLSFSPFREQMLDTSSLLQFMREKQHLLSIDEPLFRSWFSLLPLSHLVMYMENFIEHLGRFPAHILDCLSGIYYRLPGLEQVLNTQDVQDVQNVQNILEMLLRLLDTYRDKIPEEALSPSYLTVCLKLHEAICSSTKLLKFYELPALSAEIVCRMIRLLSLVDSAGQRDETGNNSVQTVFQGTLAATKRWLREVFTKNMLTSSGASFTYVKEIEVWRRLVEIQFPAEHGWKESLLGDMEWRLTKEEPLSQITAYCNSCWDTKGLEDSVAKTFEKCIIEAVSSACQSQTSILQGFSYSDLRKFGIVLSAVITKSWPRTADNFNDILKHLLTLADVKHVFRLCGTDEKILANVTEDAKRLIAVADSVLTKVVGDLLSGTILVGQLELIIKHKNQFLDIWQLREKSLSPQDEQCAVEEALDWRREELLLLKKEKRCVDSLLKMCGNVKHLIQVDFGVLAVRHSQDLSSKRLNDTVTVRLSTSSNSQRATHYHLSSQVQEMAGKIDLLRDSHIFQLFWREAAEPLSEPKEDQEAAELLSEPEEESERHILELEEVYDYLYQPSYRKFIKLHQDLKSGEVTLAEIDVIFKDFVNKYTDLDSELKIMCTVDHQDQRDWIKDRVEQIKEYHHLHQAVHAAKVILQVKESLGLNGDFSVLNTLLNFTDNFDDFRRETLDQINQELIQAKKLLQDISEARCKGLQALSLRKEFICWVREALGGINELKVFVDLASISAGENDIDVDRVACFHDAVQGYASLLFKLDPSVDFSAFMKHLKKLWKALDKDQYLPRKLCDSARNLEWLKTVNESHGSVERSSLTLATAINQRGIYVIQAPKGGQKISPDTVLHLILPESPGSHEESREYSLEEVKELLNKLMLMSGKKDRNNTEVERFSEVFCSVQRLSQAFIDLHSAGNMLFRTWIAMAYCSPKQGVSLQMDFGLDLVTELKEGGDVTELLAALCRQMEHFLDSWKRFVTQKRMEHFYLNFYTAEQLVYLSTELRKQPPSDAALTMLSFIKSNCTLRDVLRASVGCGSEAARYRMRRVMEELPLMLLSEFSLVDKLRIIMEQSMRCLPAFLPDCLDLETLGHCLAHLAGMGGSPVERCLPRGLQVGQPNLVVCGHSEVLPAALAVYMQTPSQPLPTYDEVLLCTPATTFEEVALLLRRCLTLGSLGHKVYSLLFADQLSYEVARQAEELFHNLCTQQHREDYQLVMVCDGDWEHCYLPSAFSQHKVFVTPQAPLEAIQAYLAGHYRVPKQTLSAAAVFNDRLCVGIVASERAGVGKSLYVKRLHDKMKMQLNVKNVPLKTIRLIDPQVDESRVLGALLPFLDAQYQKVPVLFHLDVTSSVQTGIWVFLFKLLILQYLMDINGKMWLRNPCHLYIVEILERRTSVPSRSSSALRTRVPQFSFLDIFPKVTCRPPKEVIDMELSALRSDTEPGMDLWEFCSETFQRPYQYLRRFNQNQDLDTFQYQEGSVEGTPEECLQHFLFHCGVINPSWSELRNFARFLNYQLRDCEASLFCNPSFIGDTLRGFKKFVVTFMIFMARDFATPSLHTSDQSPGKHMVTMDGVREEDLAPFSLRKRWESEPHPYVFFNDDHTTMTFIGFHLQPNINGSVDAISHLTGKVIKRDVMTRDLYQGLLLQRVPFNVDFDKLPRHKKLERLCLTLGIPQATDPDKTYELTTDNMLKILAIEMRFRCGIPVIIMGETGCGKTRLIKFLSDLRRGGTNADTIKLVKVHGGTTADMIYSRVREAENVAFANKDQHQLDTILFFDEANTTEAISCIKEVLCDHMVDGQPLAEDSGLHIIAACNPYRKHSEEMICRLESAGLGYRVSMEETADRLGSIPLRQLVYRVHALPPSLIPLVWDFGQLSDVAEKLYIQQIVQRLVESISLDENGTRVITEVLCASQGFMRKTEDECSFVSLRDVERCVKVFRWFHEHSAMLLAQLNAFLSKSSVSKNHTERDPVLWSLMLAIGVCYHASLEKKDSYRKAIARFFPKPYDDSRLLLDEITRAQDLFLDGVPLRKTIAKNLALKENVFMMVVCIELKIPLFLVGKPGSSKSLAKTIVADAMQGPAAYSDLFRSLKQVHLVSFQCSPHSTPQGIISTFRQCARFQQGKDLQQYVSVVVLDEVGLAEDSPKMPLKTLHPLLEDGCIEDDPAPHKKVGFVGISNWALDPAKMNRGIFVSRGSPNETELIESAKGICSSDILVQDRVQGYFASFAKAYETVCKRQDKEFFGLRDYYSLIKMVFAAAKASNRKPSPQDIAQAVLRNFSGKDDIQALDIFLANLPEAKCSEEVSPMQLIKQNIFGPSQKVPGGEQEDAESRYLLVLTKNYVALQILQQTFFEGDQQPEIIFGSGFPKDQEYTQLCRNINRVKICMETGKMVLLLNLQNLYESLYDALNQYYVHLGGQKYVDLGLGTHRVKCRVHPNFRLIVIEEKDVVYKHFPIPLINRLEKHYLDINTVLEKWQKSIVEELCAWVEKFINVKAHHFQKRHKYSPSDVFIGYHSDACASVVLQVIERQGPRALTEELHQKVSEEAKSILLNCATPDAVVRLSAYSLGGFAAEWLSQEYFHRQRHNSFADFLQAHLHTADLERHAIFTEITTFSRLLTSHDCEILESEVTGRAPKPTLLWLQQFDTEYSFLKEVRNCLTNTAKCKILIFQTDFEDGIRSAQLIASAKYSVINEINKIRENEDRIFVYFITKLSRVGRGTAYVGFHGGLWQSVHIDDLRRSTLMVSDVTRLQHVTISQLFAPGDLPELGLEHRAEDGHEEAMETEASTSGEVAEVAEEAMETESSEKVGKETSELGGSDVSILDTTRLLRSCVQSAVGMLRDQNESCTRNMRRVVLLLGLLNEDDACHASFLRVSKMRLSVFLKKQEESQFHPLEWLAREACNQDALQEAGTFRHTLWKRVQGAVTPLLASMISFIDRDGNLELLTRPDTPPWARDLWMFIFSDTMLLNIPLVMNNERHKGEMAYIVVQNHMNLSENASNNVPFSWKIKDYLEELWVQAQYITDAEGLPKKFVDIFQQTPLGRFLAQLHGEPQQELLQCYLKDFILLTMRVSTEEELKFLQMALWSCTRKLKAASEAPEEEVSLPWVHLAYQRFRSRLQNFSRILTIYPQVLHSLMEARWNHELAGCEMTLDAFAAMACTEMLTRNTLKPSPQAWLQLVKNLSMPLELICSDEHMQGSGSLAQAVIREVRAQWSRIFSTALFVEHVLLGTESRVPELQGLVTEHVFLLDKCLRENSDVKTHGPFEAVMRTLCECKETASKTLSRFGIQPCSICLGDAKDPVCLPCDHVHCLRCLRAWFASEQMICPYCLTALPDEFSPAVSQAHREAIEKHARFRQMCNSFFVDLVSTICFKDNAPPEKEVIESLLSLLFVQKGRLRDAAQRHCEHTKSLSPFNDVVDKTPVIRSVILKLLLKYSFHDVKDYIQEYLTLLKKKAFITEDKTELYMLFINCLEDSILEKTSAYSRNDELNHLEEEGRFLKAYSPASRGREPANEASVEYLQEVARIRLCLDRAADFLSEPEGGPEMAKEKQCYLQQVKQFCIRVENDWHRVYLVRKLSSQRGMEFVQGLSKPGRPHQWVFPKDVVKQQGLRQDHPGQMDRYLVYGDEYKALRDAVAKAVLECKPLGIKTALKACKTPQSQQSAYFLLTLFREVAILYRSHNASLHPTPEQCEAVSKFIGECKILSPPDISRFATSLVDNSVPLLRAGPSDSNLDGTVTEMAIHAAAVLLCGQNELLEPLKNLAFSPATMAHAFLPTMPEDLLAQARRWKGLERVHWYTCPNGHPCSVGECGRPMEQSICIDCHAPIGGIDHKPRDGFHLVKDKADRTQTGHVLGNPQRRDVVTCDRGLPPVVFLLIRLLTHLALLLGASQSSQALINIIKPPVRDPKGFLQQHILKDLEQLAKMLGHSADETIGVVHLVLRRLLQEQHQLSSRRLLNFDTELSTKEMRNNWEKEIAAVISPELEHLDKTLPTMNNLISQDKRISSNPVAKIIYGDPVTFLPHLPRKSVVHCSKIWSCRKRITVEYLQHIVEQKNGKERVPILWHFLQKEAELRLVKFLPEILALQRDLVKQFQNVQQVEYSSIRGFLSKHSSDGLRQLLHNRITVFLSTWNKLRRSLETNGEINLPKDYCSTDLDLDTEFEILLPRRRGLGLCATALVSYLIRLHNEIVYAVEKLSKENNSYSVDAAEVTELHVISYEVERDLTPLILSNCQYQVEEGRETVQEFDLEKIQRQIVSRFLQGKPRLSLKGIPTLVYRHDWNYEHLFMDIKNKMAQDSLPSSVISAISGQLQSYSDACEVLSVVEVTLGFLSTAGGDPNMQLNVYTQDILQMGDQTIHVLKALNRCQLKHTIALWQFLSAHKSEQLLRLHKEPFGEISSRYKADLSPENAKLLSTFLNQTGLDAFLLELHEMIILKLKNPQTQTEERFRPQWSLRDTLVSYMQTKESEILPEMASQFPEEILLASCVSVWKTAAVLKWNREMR

binding [1]: binds
binding [2]: binds
binding [3]: binds
binding [4]: binds
binding [5]: binds
B1: HA-PTP1B^D/A (hemagglutinin-tagged mouse PTP1B substrate-trapping mutant D181A) (enzyme, UniProt P35821 1-432, looked up, not shown: small tags and cut ends)
chain: MEMEKEFEEIDKAGNWAAIYQDIRHEASDFPCKVAKLPKNKNRNRYRDVSPFDHSRIKLHQEDNDYINASLIKMEEAQRSYILTQGPLPNTCGHFWEMVWEQKSRGVVMLNRIMEKGSLKCAQYWPQQEEKEMVFDDTGLKLTLISEDVKSYYTVRQLELENLTTKETREILHFHYTTWPAFGVPESPASFLNFLFKVRESGSLSLEHGPIVVHCSAGIGRSGTFCLADTCLLLMDKRKDPSSVDIKKVLLEMRRFRMGLIQTADQLRFSYLAVIEGAKFIMGDSSVQDQWKELSREDLDLPPEHVPPPPRPPKRTLEPHNGKCKELFSSHQWVSEETCGDEDSLAREEGRAQSSAMHSVSSMSPDTEVRRRMVGGGLQSAQASVPTEEELSSTEEEHKAHWPSHWKPFLVNVCMATLLATGAYLCYRVCFH
